Literature values in US20130288957A1, “ORAL COMBINATION THERAPY FOR TREATING HCV INFECTION IN SPECIFIC PATIENT SUBGENOTYPE POPULATIONS” (Boehringer Ingelheim International GmbH, priority 2012, published 2013).
At least one structure is not confirmed: it was looked up by name or label, or the drawing left a doubt.

Tested on: HCV
Settings: telaprevir added to PegIFN/RBV

Question: For `CCC[C@H](NC(=O)[C@@H]1[C@H]2CCC[C@H]2CN1C(=O)[C@@H](NC(=O)[C@@H](NC(=O)c1cnccn1)C1CCCCC1)C(C)(C)C)C(=O)C(=O)NC1CC1` [telaprevir], which “difference in SVR rates, non-CC versus CC genotype of SNP rs12979860” value is on record?
Answer: 51.5%

Question: And the “difference in SVR rates, non-TT versus TT genotype of SNP rs8099917” value?
Answer: 56.2%
